In PubChem BioAssay AID652054 (National Center for Advancing Translational Sciences (NCATS), 2013):
About 9,100 (2.5%) of roughly 360,000 compounds were called active. Inconclusive means that the source gave no clear call. Such entries were picked first, then a sample of the others. Rule as the data show it: active = max response below about -50%; inconclusive = no clear call, values can overlap the other calls; inactive = above that.
% is scaled to controls: 0 for no effect and ±100 for the full control effect.

Sequences of proteins named here, by UniProt entry; tags and fusion partners are left off.
UniProt P35462, whole entry, looked up: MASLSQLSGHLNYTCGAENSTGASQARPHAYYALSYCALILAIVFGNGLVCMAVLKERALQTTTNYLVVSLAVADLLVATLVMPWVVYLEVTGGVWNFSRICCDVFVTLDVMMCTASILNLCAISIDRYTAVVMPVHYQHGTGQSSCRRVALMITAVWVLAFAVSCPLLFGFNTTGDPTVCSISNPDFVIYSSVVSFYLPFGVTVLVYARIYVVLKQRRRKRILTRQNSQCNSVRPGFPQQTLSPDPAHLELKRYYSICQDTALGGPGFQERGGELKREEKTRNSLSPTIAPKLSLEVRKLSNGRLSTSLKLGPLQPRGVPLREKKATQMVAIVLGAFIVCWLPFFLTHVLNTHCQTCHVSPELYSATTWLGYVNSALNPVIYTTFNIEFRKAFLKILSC

The molecules below were run against D(3) dopamine receptor (Homo sapiens) (UniProt P35462) (assay: qHTS of D3 Dopamine Receptor Antagonist: qHTS). Conditions: D3R cells, DiscoveRx beta-arrestin luminescence, antagonist mode; active compounds read low.
In short: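 Cells expressing the human receptor were seeded at 1500 cells/well, incubated overnight at 37 degrees C in 5% CO2, then exposed to library compounds with dopamine controls for 90 minutes at 37 degrees C before luminescent detection.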
With COc1ccc2[nH]c3c(c2c1)CCN1C(=O)N([C@@H](C)C(=O)NCc2c(F)cccc2Cl)C(=O)[C@]31C the max response, negative = inhibition was inconclusive: -31.4%. In the case of COc1ccccc1C(=O)NC(C)C(c1cccs1)N1CCN(C)CC1 (stereo not drawn), the max response, negative = inhibition is reported as inconclusive: -44.5%. In the case of CSc1ccc(CN2CCC(C)(Oc3ccccc3C)C2)cc1 (stereo not drawn), the max response, negative = inhibition is reported as inconclusive: -32.5%. Brc1c(-c2ccc3c(c2)OCO3)nc2ncccn12 was tested, and the max response, negative = inhibition was inconclusive: -30.5%. Oc1c(Cl)cc(CN2CCOCC2)c2cccnc12 was tested, and the max response, negative = inhibition was inconclusive: -42.2%. For Oc1c(Br)cc(Br)cc1CNc1cccc2cccnc12, the max response, negative = inhibition was active: -57.8%. CCCNC(=O)c1ccccc1NS(=O)(=O)c1ccc(OC)c(OC)c1 was tested, and the max response, negative = inhibition was inactive: -21.7%. With O=[N+]([O-])c1ccc(C2CCCC/C2=N\OCc2cccc(F)c2)c([N+](=O)[O-])c1 (stereo not drawn) the max response, negative = inhibition was inactive: -14.7%. COc1ccc(-n2nnnc2C2c3ccccc3C(=O)N2C2CCN(Cc3ccccc3)CC2)cc1 (stereo not drawn) was tested, and the max response, negative = inhibition was inconclusive: -37.1%. For NC(=O)SCC(=O)Nc1cccc(Cl)c1, the max response, negative = inhibition was inconclusive: -37.8%. In the case of Cc1ccc(S(=O)(=O)NCCN2CCN(S(=O)(=O)c3ccccc3Cl)CC2)cc1, the max response, negative = inhibition is reported as inactive: -5.1%. With CCCCN1C[C@H](c2ccc(Br)cc2)[C@@H](CC(=O)Nc2ccc(Br)cc2)C1=O the max response, negative = inhibition was inactive: 24.8%. With C=CCN1C=C/C(=C\C=C(C#N)C#N)c2ccccc21 the max response, negative = inhibition was inconclusive: -49.9%. FC(F)(F)c1cnc(NNC(=S)Nc2ccccc2Cl)c(Cl)c1 was tested, and the max response, negative = inhibition was active: -75.5%. For O=c1cc(-c2cccs2)oc2ccc(Cl)cc12, the max response, negative = inhibition was inconclusive: -39.7%. O=C(NCc1ccccc1)NC12CC3CC(CC(C3)C1)C2 was tested, and the max response, negative = inhibition was inactive: 22.3%. O=C1CC(c2ccc(F)cc2)Sc2nc(-c3ccccc3)c(-c3ccccc3)n21 (stereo not drawn) was tested, and the max response, negative = inhibition was inconclusive: -33.4%. CC1(C)C(=O)C2(CCCC2)C(=O)OC1c1ccco1 (stereo not drawn) was tested, and the max response, negative = inhibition was inconclusive: -40.1%. With COc1ccc(C(=O)Nc2cccc(C(C)=O)c2)cc1OC the max response, negative = inhibition was inconclusive: -33.6%. In the case of CC1Cc2ccccc2N1C(=O)c1ccc(N2CCCCC2)c([N+](=O)[O-])c1 (stereo not drawn), the max response, negative = inhibition is reported as inactive: 8.78%. In the case of Cc1ccc(C(C)C)c(OCCNS(C)(=O)=O)c1, the max response, negative = inhibition is reported as inactive: 6.6%. Cc1ccc(S(=O)(=O)N2CCN(S(=O)(=O)c3ccccc3)C2)cc1 was tested, and the max response, negative = inhibition was active: -51.5%. With O=S(=O)(Nc1cccc(-c2ccc(N3CCCCCC3)nn2)c1)c1ccccc1Cl the max response, negative = inhibition was inconclusive: -41.3%. With COc1ccc(C)cc1NC(=O)c1nc2nc(C)cc(C)n2n1 the max response, negative = inhibition was inactive: 13.5%. In the case of COc1ccc([N+](=O)[O-])cc1NC(=O)C1C2C=CC(C2)C1C(=O)O (stereo not drawn), the max response, negative = inhibition is reported as inactive: -10.1%. With CCCCn1c(N)c(N(Cc2ccccc2OC)C(=O)CN2C(=O)NC(C)(c3ccccc3)C2=O)c(=O)[nH]c1=O (stereo not drawn) the max response, negative = inhibition was inconclusive: -40.5%. For CCOC(=O)C1=C(Cc2ccc(Cl)cc2)C(=O)c2ccccc2C1=O, the max response, negative = inhibition was active: -76.1%. In the case of CCN(CC)CCN(Cc1cc2ccc(C)cc2[nH]c1=O)C(=S)Nc1ccccc1C(=O)OC, the max response, negative = inhibition is reported as active: -83.6%. For CCN(CC)c1ccc(/C=N\NC(N)=O)cc1, the max response, negative = inhibition was inconclusive: -48.9%. In the case of CCC(c1nnnn1-c1c(C)cccc1C)N1CCN(C/C=C/c2ccccc2)CC1 (stereo not drawn), the max response, negative = inhibition is reported as inconclusive: -43.6%. With O=[N+]([O-])c1cccc(COc2ccc(CN3CCCCC3)cc2)c1 the max response, negative = inhibition was inconclusive: -48.8%. NC(=O)COC(=O)Cc1coc2cc3c(cc12)CCC3 was tested, and the max response, negative = inhibition was inconclusive: -31.6%. COC(=O)C(CC(C)C)Oc1ccc2c(C)cc(=O)oc2c1 (stereo not drawn) was tested, and the max response, negative = inhibition was inactive: 6.78%. O=C(OCCN1CCOCC1)C(c1ccccc1)c1ccccc1 was tested, and the max response, negative = inhibition was inconclusive: -31.7%. For Cc1ccc([C@H]2C[C@@H](n3cc(-c4ccc(F)cc4)nn3)[C@H](O)CN2Cc2cccs2)cc1, the max response, negative = inhibition was inactive: 0%. In the case of COc1ccc(Br)cc1CNc1ccc2[nH]c(=O)[nH]c2c1, the max response, negative = inhibition is reported as inactive: 15.8%. C/C(=N/NC(=O)c1cccs1)c1c(C)[nH]n(-c2nc3ccccc3s2)c1=O was tested, and the max response, negative = inhibition was inconclusive: -31.9%. CCc1nc2ccc(C(=O)NCCCN3CCN(c4ccccc4F)CC3)cc2nc1CC was tested, and the max response, negative = inhibition was active: -66.1%. In the case of COC(=O)c1cccc(S(=O)(=O)N2CCC(NC(=O)Nc3cccc(F)c3)CC2)c1, the max response, negative = inhibition is reported as inconclusive: -35%. CCn1c(C)cc(/C=C2/SC(=S)N(CC(=O)O)C2=O)c1C was tested, and the max response, negative = inhibition was inactive: 1.26%. COCCN1C2=C(COC(C)(C)C2)C(=S)NC1c1ccccc1 (stereo not drawn) was tested, and the max response, negative = inhibition was inconclusive: -45%. In the case of O=C1NC[C@@H](Cc2cccc3ccccc23)N(CCCCC2CCCCC2)C1=O, the max response, negative = inhibition is reported as inactive: 33.3%. For COC(=O)C(=C/C(C)=C/c1cccnc1)C(=O)OC, the max response, negative = inhibition was active: -51.8%.
